# Measurements published in the supplement of paper PMC8728848.
# Some of the results follow.
# B1: Blon0732mut (Bifidobacterium longum) (protein)
# chain: MPTSEHKADDATRHLTLIPAPVTLEYTHGTALIGPLVTIEDADQSWETLPIEQLSDELRHRYGVTVLRRRTHGTVISLGLDSRLAHDEYTLDVSESEGIRVRGGGESGLRYGLQTLRQIIGQTSRAIPCLHIQDKPAFAVRAYSLDVTRGRVPTMEFLTWFVDQLALYKYNQFQLYVEHAFAFVELSEAWRGTDPLTAADITYLDEYCARRGIELVPSLATFGHMYMNLRTREHRGLGEFPEDADRPFSFIERMEHHTLNAADPKAHDFASRLIEEYAPLFRSKSFNIGGNETFDLGRGRSAQDAPEAGRDELYAGFVRDLCETLARHGRQPMLWADIALESPRTMDLLPGDITMLNWMYEPQIDESKIQTIATQGRRQFVCPAVRAWSRFFPDYAGAWLNTYHMALAGTKYDAEGMVVTDWGDYGHVNDPRLSVPGLCYGAQNAWNPIEIDAHEMNRRISALVYGDESGRIMDCLARIDSDGVSFPWDLAVQVLELEYGSGTGALNMDVAACMERSSGGKLTLDRTLGCDDARRRMLQWNRERIERRRDCDQVLRDCGDAFAGLDKGGLTAEFLSVMLDGQRLFNELGEELLALADGKDVGSGANRLAADLELWFERYRAQWLSVGRHAELARIAHVVWSLADILRRGAL
# Legend:
# Assay in all cases: glycan array binding signal (z-score within array); higher = stronger binding
# Settings in all cases: glycan notation: IUPAC condensed, linker removed
# [1] = target: GlcNAc(b1-2)Man(a1-3)[GlcNAc(b1-2)Man(a1-6)]Man(b1-4)GlcNAc(b1-4)GlcNAc
# Procedure, shortened: (§1)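 Glycan array binding is given as a within-array Z-score, which can be read as non-binding when negative. The arrays, 3228 of them, came from the Consortium for Functional Glycomics database and were retained only where the protein sequence was available. Z-scores were averaged across arrays of the same protein sequence at different concentrations or buffers and across linkers.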
# [2] = target: GlcNAc(b1-2)Man(a1-3)[GlcNAc(b1-2)Man(a1-6)]Man(b1-4)GlcNAc(b1-4)[Fuc(a1-6)]GlcNAc
# Procedure, shortened: as §1
# [3] = target: GlcNAc(b1-2)Man(a1-3)[GlcNAc(b1-4)][GlcNAc(b1-2)Man(a1-6)]Man(b1-4)GlcNAc(b1-4)GlcNAc
# Procedure, shortened: as §1
# [4] = target: GlcNAc(b1-2)Man(a1-3)[GlcNAc(b1-4)][GlcNAc(b1-2)Man(a1-6)]Man(b1-4)GlcNAc(b1-4)[Fuc(a1-6)]GlcNAc
# Procedure, shortened: as §1
# [5] = target: GlcNAc(b1-2)[GlcNAc(b1-4)]Man(a1-3)[GlcNAc(b1-2)Man(a1-6)]Man(b1-4)GlcNAc(b1-4)GlcNAc
# Procedure, shortened: as §1
# [6] = target: GlcNAc(b1-2)[GlcNAc(b1-4)]Man(a1-3)[GlcNAc(b1-4)][GlcNAc(b1-2)Man(a1-6)]Man(b1-4)GlcNAc(b1-4)GlcNAc
# Procedure, shortened: as §1
# [7] = target: GlcNAc(b1-2)[GlcNAc(b1-4)]Man(a1-3)[GlcNAc(b1-4)][GlcNAc(b1-2)[GlcNAc(b1-6)]Man(a1-6)]Man(b1-4)GlcNAc(b1-4)GlcNAc
# Procedure, shortened: as §1
# [8] = target: GlcNAc(b1-2)[GlcNAc(b1-4)]Man(a1-3)[GlcNAc(b1-4)][GlcNAc(b1-2)[GlcNAc(b1-6)]Man(a1-6)]Man(b1-4)GlcNAc(b1-4)[Fuc(a1-6)]GlcNAc
# Procedure, shortened: as §1
# [9] = target: GlcNAc(b1-2)[GlcNAc(b1-6)]Man(a1-6)[GlcNAc(b1-2)Man(a1-3)]Man(b1-4)GlcNAc(b1-4)GlcNAc
# Procedure, shortened: as §1
# [10] = target: GlcNAc(b1-2)[GlcNAc(b1-6)]Man(a1-6)[GlcNAc(b1-2)Man(a1-3)]Man(b1-4)GlcNAc(b1-4)[Fuc(a1-6)]GlcNAc
# Procedure, shortened: as §1
# [11] = target: GlcNAc(b1-2)[GlcNAc(b1-6)]Man(a1-6)[GlcNAc(b1-4)][GlcNAc(b1-2)Man(a1-3)]Man(b1-4)GlcNAc(b1-4)GlcNAc
# Procedure, shortened: as §1
# [12] = target: GlcNAc(b1-3)Fuc
# Procedure, shortened: as §1
# [13] = target: GlcNAc(b1-3)Gal
# Procedure, shortened: as §1
# [14] = target: GlcNAc(b1-3)Gal(b1-3)GalNAc
# Procedure, shortened: as §1
# [15] = target: GlcNAc(b1-3)Gal(b1-4)Glc
# Procedure, shortened: as §1
# [16] = target: GlcNAc(b1-3)Gal(b1-4)GlcNAc
# Procedure, shortened: as §1
# [17] = target: GlcNAc(b1-3)Gal(b1-4)GlcNAc(b1-2)Man(a1-3)[GlcNAc(b1-3)Gal(b1-4)GlcNAc(b1-2)Man(a1-6)]Man(b1-4)GlcNAc(b1-4)GlcNAc
# Procedure, shortened: as §1
# [18] = target: GlcNAc(b1-3)Gal(b1-4)GlcNAc(b1-2)Man(a1-3)[GlcNAc(b1-3)Gal(b1-4)GlcNAc(b1-2)Man(a1-6)]Man(b1-4)GlcNAc(b1-4)[Fuc(a1-6)]GlcNAc
# Procedure, shortened: as §1
# [19] = target: GlcNAc(b1-3)Gal(b1-4)GlcNAc(b1-2)[GlcNAc(b1-3)Gal(b1-4)GlcNAc(b1-6)]Man(a1-6)[GlcNAc(b1-3)Gal(b1-4)GlcNAc(b1-2)Man(a1-3)]Man(b1-4)GlcNAc(b1-4)GlcNAc
# Procedure, shortened: as §1
# [20] = target: GlcNAc(b1-3)Gal(b1-4)GlcNAc(b1-3)Gal(b1-4)GlcNAc
# Procedure, shortened: as §1
# [21] = target: GlcNAc(b1-3)Gal(b1-4)GlcNAc(b1-3)Gal(b1-4)GlcNAc(b1-2)Man(a1-3)[GlcNAc(b1-3)Gal(b1-4)GlcNAc(b1-3)Gal(b1-4)GlcNAc(b1-2)Man(a1-6)]Man(b1-4)GlcNAc(b1-4)GlcNAc
# Procedure, shortened: as §1
# [22] = target: GlcNAc(b1-3)Gal(b1-4)GlcNAc(b1-3)Gal(b1-4)GlcNAc(b1-2)Man(a1-3)[GlcNAc(b1-3)Gal(b1-4)GlcNAc(b1-3)Gal(b1-4)GlcNAc(b1-2)Man(a1-6)]Man(b1-4)GlcNAc(b1-4)[Fuc(a1-6)]GlcNAc
# Procedure, shortened: as §1
# [23] = target: GlcNAc(b1-3)Gal(b1-4)GlcNAc(b1-3)Gal(b1-4)GlcNAc(b1-2)[GlcNAc(b1-3)Gal(b1-4)GlcNAc(b1-3)Gal(b1-4)GlcNAc(b1-6)]Man(a1-6)[GlcNAc(b1-3)Gal(b1-4)GlcNAc(b1-3)Gal(b1-4)GlcNAc(b1-2)Man(a1-3)]Man(b1-4)GlcNAc(b1-4)[Fuc(a1-6)]GlcNAc
# Procedure, shortened: as §1
# [24] = target: GlcNAc(b1-3)Gal(b1-4)GlcNAc(b1-3)Gal(b1-4)GlcNAc(b1-3)Gal(b1-4)GlcNAc(b1-2)Man(a1-3)[GlcNAc(b1-3)Gal(b1-4)GlcNAc(b1-3)Gal(b1-4)GlcNAc(b1-3)Gal(b1-4)GlcNAc(b1-2)Man(a1-6)]Man(b1-4)GlcNAc(b1-4)GlcNAc
# Procedure, shortened: as §1
# [25] = target: GlcNAc(b1-3)Gal(b1-4)GlcNAc(b1-3)Gal(b1-4)GlcNAc(b1-3)Gal(b1-4)GlcNAc(b1-2)Man(a1-3)[GlcNAc(b1-3)Gal(b1-4)GlcNAc(b1-3)Gal(b1-4)GlcNAc(b1-3)Gal(b1-4)GlcNAc(b1-2)Man(a1-6)]Man(b1-4)GlcNAc(b1-4)[Fuc(a1-6)]GlcNAc
# Procedure, shortened: as §1
# [26] = target: GlcNAc(b1-3)Gal(b1-4)GlcNAc(b1-3)Gal(b1-4)GlcNAc(b1-3)Gal(b1-4)GlcNAc(b1-2)[GlcNAc(b1-3)Gal(b1-4)GlcNAc(b1-3)Gal(b1-4)GlcNAc(b1-3)Gal(b1-4)GlcNAc(b1-6)]Man(a1-6)[GlcNAc(b1-3)Gal(b1-4)GlcNAc(b1-3)Gal(b1-4)GlcNAc(b1-3)Gal(b1-4)GlcNAc(b1-2)Man(a1-3)]Man(b1-4)GlcNAc(b1-4)[Fuc(a1-6)]GlcNAc
# Procedure, shortened: as §1
# [27] = target: GlcNAc(b1-3)Gal(b1-4)GlcNAc(b1-3)Gal(b1-4)GlcNAc(b1-3)Gal(b1-4)GlcNAc(b1-3)Gal(b1-4)GlcNAc(b1-2)Man(a1-3)[GlcNAc(b1-3)Gal(b1-4)GlcNAc(b1-3)Gal(b1-4)GlcNAc(b1-3)Gal(b1-4)GlcNAc(b1-3)Gal(b1-4)GlcNAc(b1-2)Man(a1-6)]Man(b1-4)GlcNAc(b1-4)GlcNAc
# Procedure, shortened: as §1
# [28] = target: GlcNAc(b1-3)Gal(b1-4)GlcNAc(b1-3)Gal(b1-4)GlcNAc(b1-3)Gal(b1-4)GlcNAc(b1-3)Gal(b1-4)GlcNAc(b1-2)Man(a1-3)[GlcNAc(b1-3)Gal(b1-4)GlcNAc(b1-3)Gal(b1-4)GlcNAc(b1-3)Gal(b1-4)GlcNAc(b1-3)Gal(b1-4)GlcNAc(b1-2)Man(a1-6)]Man(b1-4)GlcNAc(b1-4)[Fuc(a1-6)]GlcNAc
# Procedure, shortened: as §1
# [29] = target: GlcNAc(b1-3)Gal(b1-4)GlcNAc(b1-3)Gal(b1-4)GlcNAc(b1-3)Gal(b1-4)GlcNAc(b1-3)Gal(b1-4)GlcNAc(b1-2)[GlcNAc(b1-3)Gal(b1-4)GlcNAc(b1-3)Gal(b1-4)GlcNAc(b1-3)Gal(b1-4)GlcNAc(b1-3)Gal(b1-4)GlcNAc(b1-6)]Man(a1-6)[GlcNAc(b1-3)Gal(b1-4)GlcNAc(b1-3)Gal(b1-4)GlcNAc(b1-3)Gal(b1-4)GlcNAc(b1-3)Gal(b1-4)GlcNAc(b1-2)Man(a1-3)]Man(b1-4)GlcNAc(b1-4)[Fuc(a1-6)]GlcNAc
# Procedure, shortened: as §1
# [30] = target: GlcNAc(b1-3)Gal(b1-4)GlcNAc(b1-3)Gal(b1-4)GlcNAc(b1-3)GalNAc
# Procedure, shortened: as §1
binder,measurement,setting,value
B1,glycan array binding signal (z-score),[1],0.292
same,glycan array binding signal (z-score),[2],0.425
same,glycan array binding signal (z-score),[3],-0.795
same,glycan array binding signal (z-score),[4],-0.15
same,glycan array binding signal (z-score),[5],-0.518
same,glycan array binding signal (z-score),[6],1.28
same,glycan array binding signal (z-score),[7],-0.463
same,glycan array binding signal (z-score),[8],0.4
same,glycan array binding signal (z-score),[9],0.341
same,glycan array binding signal (z-score),[10],0.453
same,glycan array binding signal (z-score),[11],-0.576
same,glycan array binding signal (z-score),[12],-1.38
same,glycan array binding signal (z-score),[13],-0.251
same,glycan array binding signal (z-score),[14],-0.685
same,glycan array binding signal (z-score),[15],-0.575
same,glycan array binding signal (z-score),[16],-0.152
same,glycan array binding signal (z-score),[17],-0.851
same,glycan array binding signal (z-score),[18],-0.567
same,glycan array binding signal (z-score),[19],3.03
same,glycan array binding signal (z-score),[20],-0.588
same,glycan array binding signal (z-score),[21],-0.416
same,glycan array binding signal (z-score),[22],0.158
same,glycan array binding signal (z-score),[23],-0.459
same,glycan array binding signal (z-score),[24],-0.058
same,glycan array binding signal (z-score),[25],0.457
same,glycan array binding signal (z-score),[26],-0.35
same,glycan array binding signal (z-score),[27],0.694
same,glycan array binding signal (z-score),[28],-0.189
same,glycan array binding signal (z-score),[29],-1.01
same,glycan array binding signal (z-score),[30],-0.346

# A section from further up:
binder,measurement,setting,value
B1,glycan array binding signal (z-score),[26],-0.35
same,glycan array binding signal (z-score),[27],0.694
